From patent US11205502B2, “Processing method and processing apparatus for efficacy of combined drug” (Institute of radiation medicine, academy of military …, priority 2015, dated 2021)
At least one structure is not confirmed: it was looked up by name or label, or the drawing left a doubt.

System: human hepatocellular carcinoma cell HepG2
Assay: MTT method, growth inhibition of HepG2 by NX, TX and NX/TX combined application; expected additive effect by equivalent dose conversion
Type: cell-based
Settings: NX:TX=1:1 (μg/ml+ng/ml) fixed proportion
From the text: Title: the nitrohydroxyl compound (NX) is an anti-infectious drug. […] Taxol (TX) is an anticancer drug frequently used in clinic. In an NX/TX combined application, the growth of a human hepatocellular carcinoma cell HepG2 is inhibited in an MTT method. A method for quantitatively processing relevant indexes of synergistic/additive/antagonistic effect is described, which provides a reference for research and development of a novel anticancer compound.
Step 1: a dose-effect relationship table of dose levels of each single drug and each member in a combined group is prepared, and a respective dose-effect relationship curve equation is fitted. […]
Step 2: the dose is converted sequentially, and each line of the dose-effect relationship data formed into an expected additive efficacy curve band under a combined condition is calculated.
Descriptions on numerical calculation in each column of the table 2: (3) column: data in (2) column are calculated with the formula (2); (4) column: data in (3) column are calculated with the formula (1); (5) column: (1) column+(4) column; (6) column: data in (5) column are calculated with the formula (1). […]

SMILES: O=[N+]([O-])c1ccc(O)c2ncccc12 [NX, nitrohydroxyl compound]
- NX dose limits of the additive effect: 0.6344 and 0.9359
